Data taken from the supplement of paper PMC10338343.
± gives the standard deviation. This is a selection; strong and weak results do not stand in their true shares. Many of these values have a large error.

system: MILI (PIWIL2) piRISC loaded with Kctd7 piRNA (26 nt); assay: pre-steady-state target cleavage rate (min^-1); MIWI and MILI are mouse PIWI proteins and EfPiwi is from a freshwater sponge; tags in brackets are library labels; higher = faster piRNA-guided slicing of the target; settings: guide: Kctd7 piRNA 5'p-UGUUAAUCUCUCAGAGAAGGUGACAG; auxiliary factor: 500 nM mouse GTSF1
Procedure, shortened: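 The pre-steady-state cleavage rate came from a burst-and-steady-state fit to pooled data from three Cleave-'n-Seq trials, in which uncleaved targets were sequenced and normalised to depth and to weakly complementary targets. Each reaction held 0.1 nM transcribed, DNA-blocked target RNA library and 1 nM active affinity-purified piRISC carrying one synthetic guide, with or without 500 nM GTSF1 partner protein, in HEPES–potassium acetate buffer at 33 °C for 0–8 or 0–960 min. k3 was capped at 0.0001 min^-1.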

Sequence	pre-steady-state target cleavage rate
UAGUGACAGUGGUUCUCUGAGAGAUUAAUCA	0.00205 ± 0.0027
UAGUGACAGUGCUUCUCUGAGAGAUGAACA	0.00232 ± 0.003
UAGUGACACACCUUCUCUGACUCAUUAAGA	0.000494 ± 0.012
UAGUGACAGUGGAAGUCUGAGAGAUUAAAA	0.000128 ± 0.045
UAGUGUGUCACCUUCUCUGAGUCAUUUUGA	0.00122 ± 0.0091
UAGUGUGUCACCUUGAGUGAGAGAUUUUGA	0.00109 ± 0.011
UAGUGACAGUCCUUCUGUGAGUGAUUAACA	0.00146 ± 0.0044
UAGUGAGAGACCUUCUCUGAGAGAUAUUGA	0.00194 ± 0.0065
UAGUGACAGUGGUUCUCUGAGAGGAUUAACA	0.000787 ± 0.0053
UAGUGUGUCACCUUCUCUGACACAUUAACA	0.000694 ± 0.016
UAGUGACAGUCCUUCUCUGAUGAGAUUAACA	0.00278 ± 0.0025
UAGUGACAGUCCUUCUCUCAGAGAUUUACA	0.00261 ± 0.0046
UAGUGACAGUGCUUCUCUGUGACAUUAACA	0.00109 ± 0.0057
UAGUGACAGUGGAUCUCUGAGGGAUUAACA	0.00028 ± 0.011
UAGUGACAGUCCUUCUCUGGAGAUUAACA	0.00128 ± 0.0051
UAGUGACAGUGGAAGAGAGUGAGUUUAACA	0.00024 ± 0.017
UAGUGUGCCACCUUCUCUGAGAGAUUAACA	0.227 ± 0.023
UAGUGUGUCACCUUCCCUGAGAGAUUAACA	0.301 ± 0.056
UAGUGAGUCACCUUCUCUGUGAGAUAUUGA	0.00441 ± 0.0047
UAGUGUGUCAGCUUCUGUGAGAGAUUAACA	0.129 ± 0.013
UAGUGACAGUGGUUCUCUGUGUGAUUAACA	0.000243 ± 0.015
UAGUCUGAGUCCUUCUCUGAGAGAUAUUGA	0.00206 ± 0.0035
UAGUGACAGACCUUCUCAGAGAGAUUAUCA	0.00719 ± 0.0072
UAGUGACAGUGGAAGAGAGAGUGAAUAACA	0.000266 ± 0.019

Fetched one by one from the entries so far:
Sequence	pre-steady-state target cleavage rate
UAGUGACAGUCCUUCUGUGAGUGAUUAACA	0.00146 ± 0.0044
UAGUGACAGUGGAAGAGAGAGUGAAUAACA	0.000266 ± 0.019
UAGUGACAGUCCUUCUCUGAUGAGAUUAACA	0.00278 ± 0.0025

The list goes on:

Sequence	pre-steady-state target cleavage rate
UAGUGACUCACCUUCUUCUGAGAGAUUAACA	0.00384 ± 0.0041
UAGUGACAGUGGAAGAGUGAGUGAAUAACA	0.000241 ± 0.017
UAGUGACAGUGGAAGAGUGAGAGUUUUACA	0.000276 ± 0.024
UAGUCUGUCACCUUCUGAGAGAGAUAUUGA	0.00307 ± 0.0041
UAGUGACAGUGGAAGCCUGAGAGAUUAACA	0.000221 ± 0.015
UAGUCUGUCACGUUCUCUGACAGAUUAACA	0.00232 ± 0.0043
UAGUGACAGUGCUUCUCUGAGUGUUUAACA	0.000181 ± 0.018
UAGUGACAGAGCUUCUCUGAGAGAUUUUGA	0.000773 ± 0.0086
UAGUGACAGUGGAAGUCUGAGAGAUUAAACA	0.000742 ± 0.0078
UAGUGACAGUGGAUCUCUGAGAGUUUAUCA	0.000205 ± 0.029
UAGUCUGUCACCUUCUCUGAGAGAUUUUCA	0.12 ± 0.031
UAGUGACAGUGCUUCUCUGAGUCAUUAACA	0.000222 ± 0.017
UAGUGACAGUGGUUCUCUGAGAGAUUUACA	0.000741 ± 0.0067
UAGUGUGUCACCUUCUCUGAGAGAUGUAACA	0.159 ± 0.029
UAGUCUGUCACGUUCUCUGAGAGAUUUUGA	0.0018 ± 0.0043
UAGUGACAGUGGAAGACUGAGUCUUUAACA	0.000437 ± 0.018
UAGUGAGUCACGAACUCUGAGAGAUUAUGA	0.000673 ± 0.014
UAGUCUGUCAGCUUCUCUGAGUGAUUAACA	0.00157 ± 0.0028
UAGUGACUCACCUUCAGAGAGAGAUUUUGA	0.000692 ± 0.014
UAGUGUGUCACCUUGACUGAGAGAUAUUGA	0.000379 ± 0.022
UAGUGUGUCACCUUCUCUCUCAGAUUAACA	0.00177 ± 0.0068
UAGUGACAGUGCUUCUCUGACGAGAUUAACA	0.001 ± 0.005
UAGUGUGUCACCUUCUCUGAGAGAUUUACA	0.266 ± 0.047
UAGUGACAGUCCUUCUCUGAGAGAUAUACA	0.00219 ± 0.0035

Sequence	pre-steady-state target cleavage rate
UAGUGAGUCACCUUCUCUGAGAGAAUUACA	0.105 ± 0.048
UAGUGACAGACCAACUCUGAGAGAUUAAGA	0.00219 ± 0.0037
UAGUGACAGUCCUUCUCUGAGUCAUUAACA	0.000246 ± 0.01
UAGUGACAGUCCUUCUCUGACUCAUUAACA	0.000164 ± 0.018
UAGUGACAGUGGAAGUCUGAGAGCAUUAACA	0.000431 ± 0.0092
UAGUGACAGUGGUUCUCUGAGCAGAUUAACA	0.000254 ± 0.011
UAGUGAGUCACCUUCUCUGAGCAGAUUAACA	0.00439 ± 0.0066
UAGUCAGUCACCUUCUCUGAGAGAUUAACA	0.249 ± 0.016
UAGUGACAGUGGAUCUCUGAGAGAUUGACA	0.000133 ± 0.018
UAGUGACAGUGCUUCUCUGAGAGUUUUACA	0.00043 ± 0.011
UAGUCUGUCACCUUCUCUGAGAGAUUCACA	0.265 ± 0.059
UAGUGACAGACGAUCUCUGAGAGAUUAAGA	0.00216 ± 0.0038
UAGUGACAGUGGAAGUCUGAGAGAUAAACA	0.000125 ± 0.065
UAGUGACAGUGGAAGAGACAGACAUUAUCA	0.000334 ± 0.018
UAGUGACAGACCUUCUCUGACUCAUUAUGA	0.000111 ± 0.04
UAGUGACAGUGCUUCUCAUGAGAGAUUAACA	0.000569 ± 0.011
UAGUGACAGUCCUUGUCUGAGAGAAUAACA	0.000782 ± 0.016
UAGUGACAGUGGAAGUCUGAGUAGAUUAACA	0.000106 ± 0.036
UAGUGACAGUGGAACUCUGAGAGAUUAAAA	0.00011 ± 0.055
UAGUGACAGUGCUUCUCUGAAGAGAUUAACA	0.000261 ± 0.015
UAGUGUGUCACCUUCUCUGAGUCUUUAUGA	0.00245 ± 0.0069
UAGUGACAGUGGAAGUCUGAGAGAUUAAUA	0.000134 ± 0.037
UAGUGACAGAGGAUCUCUGAGAGAUUAAGA	0.000427 ± 0.011
